PubChem BioAssay AID720505 | Drosophila RNAi Screening Center, 2013

- Purpose: 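Fly regulators or components of the CRAC channel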 (primary screen)
- System: Drosophila S2R+ cells
- Reagents: long dsRNA against Drosophila genes
- Treatment: thapsigargin (2 µM) in calcium-free buffer to empty internal stores, then 2 mM calcium added back
- Detection: 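Fluo-4 signal in 384-well plates read on a FLIPR after thapsigargin (2 µM, calcium-free) store depletion and 2 mM calcium add-back; unnormalised mean endpoint per well; screen run twice, selected wells retested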
- Reading the numbers: calcium signal and retest calcium signal: higher = more calcium entry after store depletion
- Rule for the call: 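Knock-downs counted as hits when calcium entry dropped relative to STIM1 positive and Rho1 negative controls present on each plate; roughly 1500 genes called, with reductions of differing size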
- Calls: active = called as lowering calcium entry; inactive = not called
The deposit covers about 20,000 reagents; this is an unselected part of those that have a named target and a result. Over the whole deposit, about 2,100 (10%) are marked active. 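Raw plate signals without normalisation; calls rest on control-based scores that were not deposited; replicate 2 separates called from uncalled poorly.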 A plus sign joins genes that one reagent is predicted to hit. Not stated in the record: the amount of reagent, the time to read-out.

gene knocked down,DRSC id,"calcium signal, replicate 1","calcium signal, replicate 2","retest calcium signal, replicate 1","retest calcium signal, replicate 2",Call
Arp10 (Actin-related protein 10),DRSC19448,119,113,,,inactive
rig (rigor mortis),DRSC06053,149,105,,,inactive
rig (rigor mortis),DRSC06400,78.9,74.5,,,inactive
CG3014,DRSC15458,116,154,,,inactive
"ScsbetaG (Succinyl-coenzyme A synthetase beta subunit, GDP-forming)",DRSC11294,110,85.4,,,inactive
CG31633,DRSC02275,150,134,,,inactive
Pif1A (PFTAIRE-interacting factor 1A),DRSC14383,97.1,162,,,inactive
pyd3,DRSC15459,94.1,115,99.4,98.6,inactive
pyd3,DRSC21640,140,129,,,inactive
Nnf1b,DRSC22080,124,229,,,inactive
CG14668,DRSC12254,128,154,,,inactive
CG12817 + CG12420,DRSC22814,110,80.3,,,inactive
Tat (Tyrosine aminotransferase),DRSC19602,92.8,102,,,inactive
SNRPG (Small nuclear ribonucleoprotein G),DRSC20207,68.6,115,,,active
Vps16B (Vacuolar protein sorting 16B),DRSC15304,166,191,,,inactive
hbt + CG43779,DRSC02503,35.6,74.2,,,active
hbt + CG43779,DRSC23270,80.4,175,,,inactive
Sec71 (Secretory 71),DRSC01893,133,102,,,inactive
CG15252,DRSC17981,121,108,,,inactive
CG32024,DRSC21883,57.7,243,,,active
CG2906,DRSC06841,109,130,,,inactive
blot (bloated tubules),DRSC11328,113,79,,,inactive
Gr23a (Gustatory receptor 23a),DRSC00410,180,165,,,inactive
MED19 (Mediator complex subunit 19),DRSC10516,131,84.5,,,inactive
RpS10b (Ribosomal protein S10b),DRSC19561,148,86.5,6247,112,inactive
CG13577,DRSC04213,98.7,124,,,inactive
su(f) (suppressor of forked),DRSC20907,176,80.5,,,inactive
Lrp4 (LDL receptor related protein 4),DRSC20118,200,131,,,inactive
CG32639,DRSC18972,,,,,inactive
CG31342,DRSC15349,104,168,,,inactive
CG31342,DRSC16246,97,89.3,,,inactive
Ankle2,DRSC20105,120,96.1,,,inactive
Ankle2,DRSC20106,80.1,126,,,inactive
TTLL3B (Tubulin tyrosine ligase-like 3B),DRSC02133,181,145,,,inactive

Entries above whose target name starts with H or h:
gene knocked down,DRSC id,"calcium signal, replicate 1","calcium signal, replicate 2","retest calcium signal, replicate 1","retest calcium signal, replicate 2",Call
hbt + CG43779,DRSC02503,35.6,74.2,,,active
hbt + CG43779,DRSC23270,80.4,175,,,inactive
